Results reported in publication PMC9107680.
Results are given in words; binding and its absence hold for the method and conditions named. In cells and extracts the contact can be indirect. Some results given as binding are weak or reduced against the parent protein; the word gives no strength.

Sequences of proteins named here, by UniProt entry; tags and fusion partners are left off.
UniProt P60484: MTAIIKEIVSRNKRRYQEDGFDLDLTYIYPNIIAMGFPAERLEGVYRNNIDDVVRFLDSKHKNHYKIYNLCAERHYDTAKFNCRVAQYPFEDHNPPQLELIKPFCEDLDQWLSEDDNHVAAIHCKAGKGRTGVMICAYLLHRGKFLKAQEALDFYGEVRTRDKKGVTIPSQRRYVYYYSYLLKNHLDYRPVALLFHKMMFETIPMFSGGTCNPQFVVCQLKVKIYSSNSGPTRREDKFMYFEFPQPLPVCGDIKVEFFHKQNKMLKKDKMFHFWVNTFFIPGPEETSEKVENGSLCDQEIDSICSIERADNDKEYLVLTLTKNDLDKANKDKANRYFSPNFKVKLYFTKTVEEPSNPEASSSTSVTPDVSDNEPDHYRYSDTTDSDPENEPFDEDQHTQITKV
UniProt P32019: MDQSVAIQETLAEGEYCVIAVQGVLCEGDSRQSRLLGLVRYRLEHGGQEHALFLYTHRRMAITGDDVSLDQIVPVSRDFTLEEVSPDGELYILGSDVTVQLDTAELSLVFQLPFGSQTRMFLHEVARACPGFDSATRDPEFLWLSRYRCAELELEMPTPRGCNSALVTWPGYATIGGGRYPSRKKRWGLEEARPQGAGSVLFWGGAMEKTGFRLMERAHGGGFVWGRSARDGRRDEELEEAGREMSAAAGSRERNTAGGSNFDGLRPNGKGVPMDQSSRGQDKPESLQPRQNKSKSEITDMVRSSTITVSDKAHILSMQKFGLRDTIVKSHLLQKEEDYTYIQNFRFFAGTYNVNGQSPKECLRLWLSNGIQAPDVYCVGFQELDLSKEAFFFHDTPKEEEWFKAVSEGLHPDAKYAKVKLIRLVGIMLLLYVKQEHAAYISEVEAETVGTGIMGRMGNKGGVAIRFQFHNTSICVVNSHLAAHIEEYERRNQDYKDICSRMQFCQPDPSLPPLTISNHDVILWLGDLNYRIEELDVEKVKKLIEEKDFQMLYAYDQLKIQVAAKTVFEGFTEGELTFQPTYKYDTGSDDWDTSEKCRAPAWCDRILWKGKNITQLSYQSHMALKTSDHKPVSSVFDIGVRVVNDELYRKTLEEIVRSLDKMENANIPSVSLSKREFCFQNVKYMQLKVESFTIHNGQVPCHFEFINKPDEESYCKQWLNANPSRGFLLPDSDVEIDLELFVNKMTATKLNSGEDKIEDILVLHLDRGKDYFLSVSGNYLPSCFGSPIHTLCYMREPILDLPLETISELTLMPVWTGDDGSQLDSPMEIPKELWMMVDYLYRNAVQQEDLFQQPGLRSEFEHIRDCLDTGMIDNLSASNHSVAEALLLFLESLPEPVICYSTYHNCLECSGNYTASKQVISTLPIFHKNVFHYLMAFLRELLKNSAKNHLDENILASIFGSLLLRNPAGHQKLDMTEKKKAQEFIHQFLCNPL

Key:
[1] = molecular target: Flag-N-PTEN (UniProt P60484); assay: co-IP; exogenous (transfected) INPP5B and exogenous PTEN in HEK293 cells; which was precipitated is not told
[2] = molecular target: endogenous PTEN (A549 cells) (human (endogenous in A549)) (UniProt P60484); assay: co-IP; endogenous PTEN and endogenous INPP5B in A549 cells; a PTEN antibody (CST 9188s, 1:50) is listed for IP

Row | binding [1] | binding [2] | Substance
1 | binds |  | HA-tagged full-length human INPP5B (Inositol Polyphosphate-5-Phosphatase B) (from UniProt P32019 1-993) (enzyme)
2 |  | binds | endogenous INPP5B (A549 cells) (from UniProt P32019 1-993) (enzyme)
